Results: the supplement of paper PMC12823440, “Inhibitors supercharge kinase turnover through native proteolytic circuits” (Nature, 2025)
This is one part of the list. The calls rarely recur for the same compound in another form.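 In K562 cells expressing nanoluciferase-fused kinases, luminescence was recorded at 4 h intervals between 2 and 18 h, normalized as percent of control with DMSO at 100% and a positive control at 0%. A significant (2 sigma) signal drop marks a time point as decreased. The authors' rule for a hit is not shown and takes in more than the number of time points.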

Chains of the proteins cited; added tags and fusions are not shown. Lines headed by an entry give the natural chain unless they say otherwise; changes in a name come on top.
UniProt P07948: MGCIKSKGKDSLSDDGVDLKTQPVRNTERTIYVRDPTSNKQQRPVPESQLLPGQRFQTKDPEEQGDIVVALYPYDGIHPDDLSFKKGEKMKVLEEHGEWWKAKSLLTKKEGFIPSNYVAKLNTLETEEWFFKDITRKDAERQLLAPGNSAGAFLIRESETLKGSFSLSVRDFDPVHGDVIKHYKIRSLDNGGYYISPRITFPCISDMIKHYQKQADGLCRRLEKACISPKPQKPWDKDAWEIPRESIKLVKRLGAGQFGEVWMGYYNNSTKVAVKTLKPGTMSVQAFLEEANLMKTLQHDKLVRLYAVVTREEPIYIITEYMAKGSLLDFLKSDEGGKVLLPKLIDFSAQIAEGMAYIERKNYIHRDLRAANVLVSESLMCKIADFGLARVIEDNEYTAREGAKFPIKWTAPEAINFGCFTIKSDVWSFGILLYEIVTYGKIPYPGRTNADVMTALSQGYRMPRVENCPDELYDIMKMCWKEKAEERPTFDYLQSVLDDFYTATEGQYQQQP
UniProt P28482, whole entry: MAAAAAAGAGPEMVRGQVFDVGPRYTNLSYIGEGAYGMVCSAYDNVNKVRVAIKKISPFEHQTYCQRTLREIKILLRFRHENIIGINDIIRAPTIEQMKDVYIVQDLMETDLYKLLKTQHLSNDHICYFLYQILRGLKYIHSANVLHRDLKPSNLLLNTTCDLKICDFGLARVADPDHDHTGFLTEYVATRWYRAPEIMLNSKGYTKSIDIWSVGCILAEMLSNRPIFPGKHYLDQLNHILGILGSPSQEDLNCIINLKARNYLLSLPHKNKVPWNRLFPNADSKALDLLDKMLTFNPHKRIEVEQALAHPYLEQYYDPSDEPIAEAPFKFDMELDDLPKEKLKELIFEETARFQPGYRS
UniProt P49137, whole entry, looked up: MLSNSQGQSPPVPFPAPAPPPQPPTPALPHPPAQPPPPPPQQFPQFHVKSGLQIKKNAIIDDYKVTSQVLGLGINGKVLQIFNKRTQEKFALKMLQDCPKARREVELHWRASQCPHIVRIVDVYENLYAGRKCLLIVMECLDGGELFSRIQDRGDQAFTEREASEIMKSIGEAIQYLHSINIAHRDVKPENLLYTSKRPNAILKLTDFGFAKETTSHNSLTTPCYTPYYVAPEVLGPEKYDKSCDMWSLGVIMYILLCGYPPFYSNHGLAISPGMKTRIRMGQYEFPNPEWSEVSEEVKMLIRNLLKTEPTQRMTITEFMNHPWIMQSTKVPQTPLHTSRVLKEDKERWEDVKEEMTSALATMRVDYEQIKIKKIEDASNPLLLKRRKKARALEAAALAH
UniProt Q9BUB5: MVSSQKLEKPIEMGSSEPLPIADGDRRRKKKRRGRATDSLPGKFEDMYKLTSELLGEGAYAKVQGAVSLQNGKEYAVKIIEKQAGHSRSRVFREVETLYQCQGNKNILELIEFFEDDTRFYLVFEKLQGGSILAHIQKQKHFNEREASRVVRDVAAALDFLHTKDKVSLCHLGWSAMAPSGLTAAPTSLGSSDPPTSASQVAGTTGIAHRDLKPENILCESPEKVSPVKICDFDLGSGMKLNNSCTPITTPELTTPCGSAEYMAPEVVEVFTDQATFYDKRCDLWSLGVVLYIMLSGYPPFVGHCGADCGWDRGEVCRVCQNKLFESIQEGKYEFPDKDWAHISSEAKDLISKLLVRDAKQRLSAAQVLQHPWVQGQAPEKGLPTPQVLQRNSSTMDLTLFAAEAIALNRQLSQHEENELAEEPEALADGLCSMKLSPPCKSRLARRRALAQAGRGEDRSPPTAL
UniProt Q16620, whole entry, looked up: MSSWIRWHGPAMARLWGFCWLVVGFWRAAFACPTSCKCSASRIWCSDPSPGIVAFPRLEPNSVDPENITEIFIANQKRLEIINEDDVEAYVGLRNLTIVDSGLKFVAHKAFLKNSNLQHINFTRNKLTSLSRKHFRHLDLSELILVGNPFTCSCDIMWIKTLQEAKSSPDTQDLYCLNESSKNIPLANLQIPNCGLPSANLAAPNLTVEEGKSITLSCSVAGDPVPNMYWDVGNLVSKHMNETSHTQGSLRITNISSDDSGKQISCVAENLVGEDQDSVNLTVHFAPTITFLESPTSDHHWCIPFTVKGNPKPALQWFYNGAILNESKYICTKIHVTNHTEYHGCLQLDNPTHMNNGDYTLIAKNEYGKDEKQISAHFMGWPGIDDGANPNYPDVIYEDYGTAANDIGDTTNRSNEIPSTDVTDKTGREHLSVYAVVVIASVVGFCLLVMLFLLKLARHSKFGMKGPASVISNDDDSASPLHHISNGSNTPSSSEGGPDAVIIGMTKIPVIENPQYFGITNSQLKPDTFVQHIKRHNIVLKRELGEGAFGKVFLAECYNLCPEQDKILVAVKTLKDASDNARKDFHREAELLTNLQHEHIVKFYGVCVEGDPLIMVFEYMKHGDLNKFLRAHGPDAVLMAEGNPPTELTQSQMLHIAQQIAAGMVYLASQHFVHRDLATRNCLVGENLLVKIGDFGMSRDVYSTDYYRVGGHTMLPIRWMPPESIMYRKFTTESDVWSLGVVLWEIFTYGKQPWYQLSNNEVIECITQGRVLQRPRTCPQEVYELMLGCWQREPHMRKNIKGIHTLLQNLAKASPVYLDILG
UniProt O96013: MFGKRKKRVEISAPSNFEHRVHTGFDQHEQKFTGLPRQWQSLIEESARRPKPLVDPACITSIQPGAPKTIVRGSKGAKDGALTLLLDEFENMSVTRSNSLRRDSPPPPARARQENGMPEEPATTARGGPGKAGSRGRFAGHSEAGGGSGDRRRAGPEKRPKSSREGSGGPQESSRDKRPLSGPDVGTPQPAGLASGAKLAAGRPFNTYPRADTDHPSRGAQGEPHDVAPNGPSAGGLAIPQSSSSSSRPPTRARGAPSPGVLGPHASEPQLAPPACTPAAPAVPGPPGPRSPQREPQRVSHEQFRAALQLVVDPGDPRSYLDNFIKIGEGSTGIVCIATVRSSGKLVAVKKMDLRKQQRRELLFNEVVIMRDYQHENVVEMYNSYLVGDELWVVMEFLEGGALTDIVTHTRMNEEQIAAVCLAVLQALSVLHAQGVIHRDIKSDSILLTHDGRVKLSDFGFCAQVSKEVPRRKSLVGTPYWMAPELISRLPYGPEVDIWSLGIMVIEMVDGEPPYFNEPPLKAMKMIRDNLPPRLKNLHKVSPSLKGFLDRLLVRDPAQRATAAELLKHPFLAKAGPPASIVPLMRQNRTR
UniProt Q96KB5: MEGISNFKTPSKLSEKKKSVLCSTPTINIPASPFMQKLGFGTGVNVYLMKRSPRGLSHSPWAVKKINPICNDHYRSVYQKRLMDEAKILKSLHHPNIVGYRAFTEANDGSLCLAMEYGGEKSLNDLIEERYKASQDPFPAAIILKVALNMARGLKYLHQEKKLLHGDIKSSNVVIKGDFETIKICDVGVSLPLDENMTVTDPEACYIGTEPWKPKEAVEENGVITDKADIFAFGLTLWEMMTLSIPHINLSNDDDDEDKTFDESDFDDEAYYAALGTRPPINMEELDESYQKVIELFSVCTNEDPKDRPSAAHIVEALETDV
UniProt Q15118, whole entry, looked up: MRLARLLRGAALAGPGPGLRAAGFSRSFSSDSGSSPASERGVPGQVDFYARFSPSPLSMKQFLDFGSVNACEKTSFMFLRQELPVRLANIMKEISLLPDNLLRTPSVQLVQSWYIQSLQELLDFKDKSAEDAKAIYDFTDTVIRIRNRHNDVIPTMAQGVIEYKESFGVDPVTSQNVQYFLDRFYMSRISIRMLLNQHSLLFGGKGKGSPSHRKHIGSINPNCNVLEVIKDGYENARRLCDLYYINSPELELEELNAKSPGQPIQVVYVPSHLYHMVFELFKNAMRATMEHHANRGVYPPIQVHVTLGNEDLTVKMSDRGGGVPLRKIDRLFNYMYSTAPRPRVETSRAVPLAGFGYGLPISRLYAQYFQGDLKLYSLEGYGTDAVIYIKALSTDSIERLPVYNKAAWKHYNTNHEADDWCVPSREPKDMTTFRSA
UniProt O15530: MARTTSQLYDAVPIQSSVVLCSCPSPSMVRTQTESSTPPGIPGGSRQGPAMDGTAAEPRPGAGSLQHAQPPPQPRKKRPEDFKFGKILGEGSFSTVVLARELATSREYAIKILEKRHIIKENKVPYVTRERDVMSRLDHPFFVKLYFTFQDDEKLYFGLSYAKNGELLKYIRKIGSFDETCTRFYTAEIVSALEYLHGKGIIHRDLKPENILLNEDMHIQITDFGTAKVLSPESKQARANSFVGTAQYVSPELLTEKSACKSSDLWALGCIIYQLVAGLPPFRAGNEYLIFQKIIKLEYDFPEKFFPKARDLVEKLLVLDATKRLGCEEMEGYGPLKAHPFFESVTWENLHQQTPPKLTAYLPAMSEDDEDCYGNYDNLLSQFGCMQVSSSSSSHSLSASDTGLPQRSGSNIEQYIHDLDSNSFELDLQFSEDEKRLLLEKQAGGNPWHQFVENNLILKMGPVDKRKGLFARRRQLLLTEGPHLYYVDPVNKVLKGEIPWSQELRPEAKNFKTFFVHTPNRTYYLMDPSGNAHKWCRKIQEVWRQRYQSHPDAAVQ
UniProt Q9UBF8: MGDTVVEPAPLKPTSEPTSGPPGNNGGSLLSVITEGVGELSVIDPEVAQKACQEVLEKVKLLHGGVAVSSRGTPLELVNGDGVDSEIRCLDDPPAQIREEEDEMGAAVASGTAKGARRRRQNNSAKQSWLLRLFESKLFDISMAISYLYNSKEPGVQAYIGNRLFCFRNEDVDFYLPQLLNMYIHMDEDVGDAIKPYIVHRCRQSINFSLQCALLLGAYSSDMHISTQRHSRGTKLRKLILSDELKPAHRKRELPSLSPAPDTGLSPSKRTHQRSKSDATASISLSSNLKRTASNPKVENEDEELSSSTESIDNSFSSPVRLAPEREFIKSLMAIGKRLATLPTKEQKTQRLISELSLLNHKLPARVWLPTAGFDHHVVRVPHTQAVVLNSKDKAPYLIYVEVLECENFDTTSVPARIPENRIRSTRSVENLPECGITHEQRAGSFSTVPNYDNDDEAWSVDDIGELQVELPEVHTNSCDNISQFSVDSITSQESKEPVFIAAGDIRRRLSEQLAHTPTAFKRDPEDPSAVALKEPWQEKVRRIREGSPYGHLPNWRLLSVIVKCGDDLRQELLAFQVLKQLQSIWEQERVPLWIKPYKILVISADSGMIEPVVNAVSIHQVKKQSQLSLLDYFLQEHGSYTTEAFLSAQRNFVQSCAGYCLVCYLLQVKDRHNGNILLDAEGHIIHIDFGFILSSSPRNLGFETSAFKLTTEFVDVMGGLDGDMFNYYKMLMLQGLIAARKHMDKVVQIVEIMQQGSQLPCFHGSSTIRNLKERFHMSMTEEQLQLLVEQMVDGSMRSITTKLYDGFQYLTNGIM
UniProt P53350, whole entry: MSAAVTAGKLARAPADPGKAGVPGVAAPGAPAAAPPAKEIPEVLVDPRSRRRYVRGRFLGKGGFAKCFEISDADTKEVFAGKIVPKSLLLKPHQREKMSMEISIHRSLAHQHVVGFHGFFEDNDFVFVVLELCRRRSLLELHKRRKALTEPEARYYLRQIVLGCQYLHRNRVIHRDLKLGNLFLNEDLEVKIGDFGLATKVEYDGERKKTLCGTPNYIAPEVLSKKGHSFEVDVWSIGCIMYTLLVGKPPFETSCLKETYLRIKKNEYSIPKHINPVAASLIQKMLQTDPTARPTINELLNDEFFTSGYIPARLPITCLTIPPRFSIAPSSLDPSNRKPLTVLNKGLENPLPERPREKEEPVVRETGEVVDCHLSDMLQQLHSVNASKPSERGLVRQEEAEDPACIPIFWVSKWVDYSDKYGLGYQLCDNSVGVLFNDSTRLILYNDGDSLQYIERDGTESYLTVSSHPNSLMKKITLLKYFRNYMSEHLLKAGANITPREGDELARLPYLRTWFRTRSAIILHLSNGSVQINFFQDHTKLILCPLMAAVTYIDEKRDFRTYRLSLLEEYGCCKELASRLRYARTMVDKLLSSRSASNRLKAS
UniProt Q13131: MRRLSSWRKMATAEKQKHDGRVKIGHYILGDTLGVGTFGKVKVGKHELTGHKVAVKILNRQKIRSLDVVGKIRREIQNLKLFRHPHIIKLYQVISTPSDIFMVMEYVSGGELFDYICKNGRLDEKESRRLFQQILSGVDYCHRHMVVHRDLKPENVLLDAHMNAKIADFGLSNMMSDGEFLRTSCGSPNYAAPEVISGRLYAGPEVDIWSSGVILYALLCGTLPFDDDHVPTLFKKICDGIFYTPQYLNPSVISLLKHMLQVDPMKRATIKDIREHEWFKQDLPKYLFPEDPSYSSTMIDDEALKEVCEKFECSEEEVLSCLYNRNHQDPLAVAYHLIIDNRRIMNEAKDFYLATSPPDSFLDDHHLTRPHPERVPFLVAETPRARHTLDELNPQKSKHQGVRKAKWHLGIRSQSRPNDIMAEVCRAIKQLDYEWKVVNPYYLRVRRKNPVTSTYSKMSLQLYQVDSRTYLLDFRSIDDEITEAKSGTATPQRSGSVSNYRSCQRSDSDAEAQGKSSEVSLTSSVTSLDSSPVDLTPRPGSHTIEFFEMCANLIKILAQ

How the values were obtained:
Assay in all cases: number of time points (of 5) at which kinase-Nluc abundance scored as decreased, DMSO-normalised (count); higher = more persistent destabilization
Conditions in all cases: K562; 2-18 h
[1] = target: LMTK2 (UniProt Q8IWU2)
[2] = target: LYN (UniProt P07948)
[3] = target: MAP2K1 (UniProt Q02750)
[4] = target: MAP2K2 (UniProt P36507)
[5] = target: MAP4K2 (UniProt Q12851)
[6] = target: MAPK1 (UniProt P28482)
[7] = target: MAPK4 (UniProt P31152)
[8] = target: MAPKAPK2 (UniProt P49137)
[9] = target: MKNK1 (UniProt Q9BUB5)
[10] = target: NTRK2 (UniProt Q16620)
[11] = target: NTRK3 (UniProt Q16288)
[12] = target: PAK4 (UniProt O96013)
[13] = target: PBK (UniProt Q96KB5)
[14] = target: PDGFRB (UniProt P09619)
[15] = target: PDK1 (UniProt Q15118)
[16] = target: PDPK1 (UniProt O15530)
[17] = target: PIK4CA (UniProt P42356)
[18] = target: PIK4CB (UniProt Q9UBF8)
[19] = target: PLK1 (UniProt P53350)
[20] = target: PRKAA1 (UniProt Q13131)

Measured: number of time points

Cc1cnc(Nc2ccc(N3CCN(C)CC3)cc2)nc1Nc1cccc(S(=O)(=O)NC(C)(C)C)c1 (2.5 µM)
0: all assays above

C[C@H]1Cc2ccccc2N1C(=O)Cc1nc(N2CCOCC2)cc(=O)[nH]1 (2.5 µM)
0: all assays above

CCC(C)(C)C(=O)N(O)Cc1ccccc1 (10 µM)
0: all assays above

C[C@@H]1COCCN1c1cc(=O)n2c(n1)N(Cc1cncc(Cl)c1)[C@H](C(F)(F)F)CC2 (10 µM)
2: [1] | [18]
0: all other assays above

Cc1ccc(-c2nn(C(C)(C)CNC(=O)c3ccncc3)c3ncnc(N)c23)cc1 (2.5 µM)
0: all assays above

COc1ccc2c(c1OC)OC1c3ccc(O)cc3OCC21 (stereo not given) [Methylnissolin] (10 µM)
0: all assays above

CC1(N)CCN(c2cnc3c(-c4cccc(Cl)c4Cl)[nH]nc3n2)CC1 (2.5 µM)
0: all assays above

CC1(COc2ccc3c(c2)ncn3-c2ccc3cccc(N4CCC(N)CC4)c3n2)COC1 [Crenolanib] (2.5 µM)
2: [2] | [9] | [18]
3: [1]
0: all other assays above

CC(C)Oc1ccc(-c2cnc3c(-c4ccnc5ccccc45)cnn3c2)cc1 (10 µM)
0: all assays above

O=C1NC(=O)C(c2cnc3ccccn23)=C1c1cn2c3c(cc(F)cc13)CN(C(=O)N1CCCCC1)CC2 (2.5 µM)
0: all assays above

COC(=O)N[C@@H](C)CNc1nccc(-c2cn(C(C)C)nc2-c2cc(Cl)cc(NS(C)(=O)=O)c2F)n1 [Encorafenib] (10 µM)
0: all assays above

C[C@@H]1O[C@@H](OC[C@H]2O[C@@H](Oc3cc(O)c4c(c3)O[C@H](c3ccc(O)cc3)CC4=O)[C@H](O)[C@@H](O)[C@@H]2O)[C@H](O)[C@H](O)[C@H]1O [Narirutin] (10 µM)
0: all assays above

Cn1cc(-c2ccc3nnc(C(F)(F)c4ccc5ncccc5c4)n3n2)cn1 (10 µM)
0: all assays above

O=C(O)CCc1ccc(NCc2cccc(Oc3ccccc3)c2)cc1 (10 µM)
0: all assays above

C[C@H]1[C@H](OC(=O)CCC(=O)O)O[C@@H]2O[C@@]3(C)CC[C@H]4[C@H](C)CC[C@@H]1[C@@]24OO3 [Artesunate] (2.5 µM)
2: [9]
1: [16]
0: all other assays above

CC[C@@H]1[C@H](F)C(=O)N[C@@H]1COc1nccc2cc(C(N)=O)c(OC)cc12 (10 µM)
0: all assays above

C=CC(=O)N1CCC[C@@H](n2nc(C(=O)Nc3ccc(CC(=O)N(C)C)c(C)c3C)c3c(N)ncnc32)C1 (10 µM)
0: all assays above

COc1cc(N2CCC(N3CCN(C)CC3)CC2)ccc1Nc1nc2c(c(Nc3ccccc3S(=O)(=O)NC(C)C)n1)CCN2 [Conteltinib] (10 µM)
0: all assays above

C=CC(=O)Nc1cccc(-n2c(=O)cc(C)c3cnc(Nc4ccc(OCCN(C)C)cc4OC)nc32)c1 (10 µM)
0: all assays above

Three entries already listed, ordered by number of heavy atoms, low to high.
C[C@H]1Cc2ccccc2N1C(=O)Cc1nc(N2CCOCC2)cc(=O)[nH]1 (2.5 µM)
0: all assays above

C[C@H]1[C@H](OC(=O)CCC(=O)O)O[C@@H]2O[C@@]3(C)CC[C@H]4[C@H](C)CC[C@@H]1[C@@]24OO3 [Artesunate] (2.5 µM)
2: [9]
1: [16]
0: all other assays above

Cn1cc(-c2ccc3nnc(C(F)(F)c4ccc5ncccc5c4)n3n2)cn1 (10 µM)
0: all assays above

Continuation:

O=C1NC(=O)C(c2cn(-c3ccccc3)nc2-c2ccc(F)cc2)N1 (stereo not given) (10 µM)
1: [19]
0: all other assays above

CC(C)(C)Cn1c(N)nc2ccc(-c3[nH]c(C(C)(C)C)nc3-c3ccc(F)cc3)nc21 [Ralimetinib dimesylate] (2.5 µM)
0: all assays above

CC(C)(O)[C@@H]1CC[C@](C)([C@H]2[C@@H](O)C[C@@]3(C)[C@@H]4C[C@H](O[C@@H]5O[C@H](CO)[C@@H](O)[C@H](O)[C@H]5O)[C@H]5C(C)(C)[C@@H](O[C@@H]6OC[C@@H](O)[C@H](O)[C@H]6O[C@@H]6O[C@H](CO)[C@@H](O)[C@H](O)[C@H]6O)CC[C@@]56C[C@@]46CC[C@]23C)O1 [Astragaloside VI] (10 µM)
0: all assays above

CCCNC(=O)c1cn2ncnc(Nc3cc(C(=O)NC4CC4)ccc3C)c2c1C (10 µM)
0: all assays above
